In publication PMC12552968, “The RING-finger domain of Arabidopsis RMR functions as an E3 ligase essential for post-Golgi trafficking” (The Journal of Biological Chemistry, 2025) one finds binding data, which are given here for one substance.

Sequences of proteins named here, by UniProt entry; tags and fusion partners are left off.
UniProt Q9FKT3: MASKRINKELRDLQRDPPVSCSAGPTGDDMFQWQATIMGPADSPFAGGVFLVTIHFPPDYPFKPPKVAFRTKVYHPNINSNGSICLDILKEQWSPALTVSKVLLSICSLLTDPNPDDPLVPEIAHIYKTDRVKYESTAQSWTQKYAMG

The experiment has as its target T1, I234Y variant of GST-AtRMR1-RING (Arabidopsis) (UniProt Q9M622).
T1 sequence: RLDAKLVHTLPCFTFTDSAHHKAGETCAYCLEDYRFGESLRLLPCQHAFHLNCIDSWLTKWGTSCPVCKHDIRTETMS
Kind of experiment: pull-down; AtUbc30 (50 to 60 μM) with equimolar GST, wildtype or I234Y GST-AtRMR1-RING in the presence of GSTrap Sepharose; 30 mM Tris pH 7.5, 150 mM NaCl, 2 mM DTT; 4 h at 4 °C; eluted with 20 mM reduced glutathione; 15% SDS-PAGE, Coomassie blue; both purified.

These are yes or no findings as the source states them, for the method shown. Tags and fused reporters may be left off the sequences shown.

Regarding “Arabidopsis E2 ubiquitin-conjugating enzyme AtUbc30 (from UniProt Q9FKT3 1-148)”, the binding result is “no binding (tested: 50 μM)”.
